Reference: the supplement of paper PMC10849652
The other results are listed elsewhere or left out.

Protein sequences, listed by entry. Tags and fused reporters are not part of them. Lines headed by an entry give the natural chain unless they say otherwise; changes in a name come on top.
UniProt Q8N7R7: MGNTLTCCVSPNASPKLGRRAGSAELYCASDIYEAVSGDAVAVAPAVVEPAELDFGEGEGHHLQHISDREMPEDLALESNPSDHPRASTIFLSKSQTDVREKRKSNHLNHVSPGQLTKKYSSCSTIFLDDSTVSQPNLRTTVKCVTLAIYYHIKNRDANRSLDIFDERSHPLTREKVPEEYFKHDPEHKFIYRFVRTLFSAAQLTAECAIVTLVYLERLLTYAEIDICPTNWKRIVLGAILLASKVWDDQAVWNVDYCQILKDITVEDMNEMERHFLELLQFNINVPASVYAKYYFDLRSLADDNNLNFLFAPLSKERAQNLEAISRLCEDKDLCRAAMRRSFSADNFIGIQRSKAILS
UniProt Q08722, whole entry, looked up: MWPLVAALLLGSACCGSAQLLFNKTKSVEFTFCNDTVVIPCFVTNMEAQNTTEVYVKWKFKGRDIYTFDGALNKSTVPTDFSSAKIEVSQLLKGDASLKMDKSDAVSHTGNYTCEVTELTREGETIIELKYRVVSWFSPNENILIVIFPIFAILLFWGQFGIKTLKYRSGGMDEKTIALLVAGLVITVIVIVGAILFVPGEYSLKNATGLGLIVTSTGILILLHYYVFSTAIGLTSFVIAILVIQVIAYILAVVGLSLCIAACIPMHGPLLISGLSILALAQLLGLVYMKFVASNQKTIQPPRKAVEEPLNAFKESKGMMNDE
UniProt Q8N163, whole entry, looked up: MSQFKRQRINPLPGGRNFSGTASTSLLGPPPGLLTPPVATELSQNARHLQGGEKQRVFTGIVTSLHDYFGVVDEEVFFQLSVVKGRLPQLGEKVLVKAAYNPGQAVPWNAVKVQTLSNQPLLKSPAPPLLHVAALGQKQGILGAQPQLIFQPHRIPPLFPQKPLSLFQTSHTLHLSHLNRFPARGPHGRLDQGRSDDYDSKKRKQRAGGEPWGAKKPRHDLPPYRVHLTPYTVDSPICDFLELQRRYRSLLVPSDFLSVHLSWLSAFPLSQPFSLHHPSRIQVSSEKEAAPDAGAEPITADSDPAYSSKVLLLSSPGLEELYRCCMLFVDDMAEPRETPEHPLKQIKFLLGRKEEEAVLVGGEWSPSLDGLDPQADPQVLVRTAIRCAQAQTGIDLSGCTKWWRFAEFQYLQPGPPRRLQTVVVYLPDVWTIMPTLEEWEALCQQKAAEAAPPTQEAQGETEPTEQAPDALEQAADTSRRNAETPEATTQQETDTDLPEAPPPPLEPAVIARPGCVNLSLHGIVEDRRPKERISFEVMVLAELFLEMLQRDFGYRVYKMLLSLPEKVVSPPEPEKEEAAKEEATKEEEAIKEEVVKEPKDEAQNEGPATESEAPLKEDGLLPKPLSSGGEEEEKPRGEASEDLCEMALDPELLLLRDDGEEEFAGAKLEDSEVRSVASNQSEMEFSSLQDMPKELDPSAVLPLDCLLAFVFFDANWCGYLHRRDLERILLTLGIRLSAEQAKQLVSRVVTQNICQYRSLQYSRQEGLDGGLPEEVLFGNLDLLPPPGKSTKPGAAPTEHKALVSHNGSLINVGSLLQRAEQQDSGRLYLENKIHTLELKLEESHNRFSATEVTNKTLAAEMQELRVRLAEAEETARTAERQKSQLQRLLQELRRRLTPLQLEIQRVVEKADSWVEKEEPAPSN
UniProt P08962, whole entry, looked up: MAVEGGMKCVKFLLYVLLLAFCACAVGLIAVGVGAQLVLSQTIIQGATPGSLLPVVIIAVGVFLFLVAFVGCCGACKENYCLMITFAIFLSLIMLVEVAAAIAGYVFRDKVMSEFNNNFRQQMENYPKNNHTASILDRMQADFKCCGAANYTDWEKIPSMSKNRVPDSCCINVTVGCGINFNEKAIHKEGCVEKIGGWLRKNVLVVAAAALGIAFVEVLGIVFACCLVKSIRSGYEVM
UniProt P04040: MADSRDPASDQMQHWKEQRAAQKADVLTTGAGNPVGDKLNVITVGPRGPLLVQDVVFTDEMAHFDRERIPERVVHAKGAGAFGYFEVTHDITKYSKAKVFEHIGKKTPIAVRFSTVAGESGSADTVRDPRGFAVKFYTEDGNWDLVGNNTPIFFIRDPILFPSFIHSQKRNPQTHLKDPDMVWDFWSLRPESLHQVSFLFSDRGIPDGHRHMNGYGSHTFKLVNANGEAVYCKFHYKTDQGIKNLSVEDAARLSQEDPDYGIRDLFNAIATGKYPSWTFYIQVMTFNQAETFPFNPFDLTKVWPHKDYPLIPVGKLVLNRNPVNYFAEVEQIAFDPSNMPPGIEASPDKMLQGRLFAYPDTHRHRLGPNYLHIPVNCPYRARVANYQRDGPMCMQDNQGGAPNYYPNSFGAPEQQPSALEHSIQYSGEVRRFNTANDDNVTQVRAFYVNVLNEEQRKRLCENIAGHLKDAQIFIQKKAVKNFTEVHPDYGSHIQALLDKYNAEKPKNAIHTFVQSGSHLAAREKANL
UniProt P33681, whole entry, looked up: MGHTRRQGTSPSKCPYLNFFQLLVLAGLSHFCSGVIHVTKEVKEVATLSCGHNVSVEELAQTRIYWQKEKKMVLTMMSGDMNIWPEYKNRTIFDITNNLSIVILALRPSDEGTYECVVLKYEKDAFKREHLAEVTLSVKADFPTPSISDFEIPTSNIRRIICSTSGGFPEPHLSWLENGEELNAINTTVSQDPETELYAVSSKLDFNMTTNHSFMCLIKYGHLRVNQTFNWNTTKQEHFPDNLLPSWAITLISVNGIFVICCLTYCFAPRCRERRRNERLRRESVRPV
UniProt P42575: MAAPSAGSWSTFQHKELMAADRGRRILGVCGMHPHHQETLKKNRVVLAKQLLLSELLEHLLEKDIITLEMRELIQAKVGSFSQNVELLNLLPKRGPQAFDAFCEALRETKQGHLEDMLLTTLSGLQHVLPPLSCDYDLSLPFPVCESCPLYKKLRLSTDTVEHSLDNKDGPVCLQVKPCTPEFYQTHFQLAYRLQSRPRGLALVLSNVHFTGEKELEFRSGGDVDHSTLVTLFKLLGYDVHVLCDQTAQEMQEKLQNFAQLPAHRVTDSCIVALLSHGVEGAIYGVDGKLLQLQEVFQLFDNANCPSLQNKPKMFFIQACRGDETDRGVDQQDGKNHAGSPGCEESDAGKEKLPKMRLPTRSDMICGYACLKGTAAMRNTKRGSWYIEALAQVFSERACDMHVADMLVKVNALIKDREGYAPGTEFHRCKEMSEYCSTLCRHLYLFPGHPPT
UniProt Q96ER9: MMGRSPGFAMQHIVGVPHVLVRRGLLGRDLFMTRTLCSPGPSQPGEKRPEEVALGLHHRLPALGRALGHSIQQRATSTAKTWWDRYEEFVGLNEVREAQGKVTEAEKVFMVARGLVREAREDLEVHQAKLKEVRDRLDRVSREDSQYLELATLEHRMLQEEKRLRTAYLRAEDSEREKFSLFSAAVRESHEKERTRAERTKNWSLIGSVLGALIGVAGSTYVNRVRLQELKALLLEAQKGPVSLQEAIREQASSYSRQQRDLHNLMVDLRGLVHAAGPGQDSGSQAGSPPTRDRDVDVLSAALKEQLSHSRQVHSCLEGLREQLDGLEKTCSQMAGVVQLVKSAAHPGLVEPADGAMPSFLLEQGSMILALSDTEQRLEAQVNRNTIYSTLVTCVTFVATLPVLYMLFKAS
UniProt O95273: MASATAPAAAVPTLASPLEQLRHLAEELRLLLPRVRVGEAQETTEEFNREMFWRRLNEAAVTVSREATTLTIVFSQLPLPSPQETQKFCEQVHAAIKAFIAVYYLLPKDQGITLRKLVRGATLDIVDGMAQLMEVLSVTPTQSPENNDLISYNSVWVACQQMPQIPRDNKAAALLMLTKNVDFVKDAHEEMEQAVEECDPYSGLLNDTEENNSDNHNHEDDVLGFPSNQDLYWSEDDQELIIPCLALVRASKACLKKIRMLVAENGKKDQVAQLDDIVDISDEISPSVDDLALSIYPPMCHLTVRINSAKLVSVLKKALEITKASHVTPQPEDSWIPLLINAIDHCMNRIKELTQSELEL
UniProt Q4G0S7: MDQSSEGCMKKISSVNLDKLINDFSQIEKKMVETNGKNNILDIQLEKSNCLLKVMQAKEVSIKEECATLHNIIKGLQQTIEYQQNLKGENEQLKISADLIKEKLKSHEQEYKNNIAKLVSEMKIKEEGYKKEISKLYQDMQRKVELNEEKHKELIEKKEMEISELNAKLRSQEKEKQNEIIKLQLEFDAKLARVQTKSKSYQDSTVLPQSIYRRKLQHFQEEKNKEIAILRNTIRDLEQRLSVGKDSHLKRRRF
UniProt P08174: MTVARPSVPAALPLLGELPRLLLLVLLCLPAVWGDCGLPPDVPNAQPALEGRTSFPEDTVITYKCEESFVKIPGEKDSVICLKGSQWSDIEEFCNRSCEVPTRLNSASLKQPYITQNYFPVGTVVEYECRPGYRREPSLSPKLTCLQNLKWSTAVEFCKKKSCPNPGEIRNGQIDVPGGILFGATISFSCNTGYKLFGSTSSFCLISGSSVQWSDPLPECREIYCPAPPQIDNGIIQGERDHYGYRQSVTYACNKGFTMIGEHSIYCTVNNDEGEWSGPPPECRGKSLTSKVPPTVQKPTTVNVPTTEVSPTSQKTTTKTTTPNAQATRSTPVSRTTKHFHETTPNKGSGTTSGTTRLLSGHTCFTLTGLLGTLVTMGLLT
UniProt O14618: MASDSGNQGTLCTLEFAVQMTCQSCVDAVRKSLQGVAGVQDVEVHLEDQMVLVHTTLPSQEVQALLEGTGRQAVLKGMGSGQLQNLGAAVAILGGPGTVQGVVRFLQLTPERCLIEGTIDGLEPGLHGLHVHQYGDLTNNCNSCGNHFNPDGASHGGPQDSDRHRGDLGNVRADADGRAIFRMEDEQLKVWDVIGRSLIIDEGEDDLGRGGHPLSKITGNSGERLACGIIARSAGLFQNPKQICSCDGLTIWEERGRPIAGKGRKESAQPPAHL
UniProt A6NHX0: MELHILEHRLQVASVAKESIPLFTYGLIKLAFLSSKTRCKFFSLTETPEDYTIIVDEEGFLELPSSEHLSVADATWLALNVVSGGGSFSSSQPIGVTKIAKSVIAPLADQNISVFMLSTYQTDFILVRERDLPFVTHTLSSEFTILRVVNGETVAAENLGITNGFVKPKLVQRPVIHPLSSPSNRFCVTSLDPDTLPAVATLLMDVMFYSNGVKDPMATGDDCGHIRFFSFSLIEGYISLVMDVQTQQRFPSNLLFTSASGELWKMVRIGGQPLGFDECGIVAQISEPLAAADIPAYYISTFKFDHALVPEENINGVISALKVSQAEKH
UniProt Q75N03: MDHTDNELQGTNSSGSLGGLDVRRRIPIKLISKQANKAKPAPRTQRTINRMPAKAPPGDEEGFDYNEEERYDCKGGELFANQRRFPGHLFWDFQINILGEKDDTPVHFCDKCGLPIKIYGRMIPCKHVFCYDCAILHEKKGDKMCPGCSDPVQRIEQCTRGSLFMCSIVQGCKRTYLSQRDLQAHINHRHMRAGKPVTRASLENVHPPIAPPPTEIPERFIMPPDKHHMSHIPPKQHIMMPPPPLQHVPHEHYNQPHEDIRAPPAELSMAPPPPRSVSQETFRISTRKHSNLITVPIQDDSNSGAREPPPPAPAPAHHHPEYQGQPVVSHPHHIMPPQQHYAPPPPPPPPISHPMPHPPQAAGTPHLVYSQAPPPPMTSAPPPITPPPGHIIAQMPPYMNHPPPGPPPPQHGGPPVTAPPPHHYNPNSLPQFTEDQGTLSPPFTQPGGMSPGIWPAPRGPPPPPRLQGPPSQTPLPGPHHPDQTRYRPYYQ
UniProt P16152: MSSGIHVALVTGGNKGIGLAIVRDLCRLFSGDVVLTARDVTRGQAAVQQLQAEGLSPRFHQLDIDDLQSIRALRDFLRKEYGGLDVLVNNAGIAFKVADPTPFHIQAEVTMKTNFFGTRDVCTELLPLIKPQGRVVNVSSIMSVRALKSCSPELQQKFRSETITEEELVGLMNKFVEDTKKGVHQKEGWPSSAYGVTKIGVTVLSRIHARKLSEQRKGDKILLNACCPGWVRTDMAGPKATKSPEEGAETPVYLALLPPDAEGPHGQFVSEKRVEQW
UniProt O95810: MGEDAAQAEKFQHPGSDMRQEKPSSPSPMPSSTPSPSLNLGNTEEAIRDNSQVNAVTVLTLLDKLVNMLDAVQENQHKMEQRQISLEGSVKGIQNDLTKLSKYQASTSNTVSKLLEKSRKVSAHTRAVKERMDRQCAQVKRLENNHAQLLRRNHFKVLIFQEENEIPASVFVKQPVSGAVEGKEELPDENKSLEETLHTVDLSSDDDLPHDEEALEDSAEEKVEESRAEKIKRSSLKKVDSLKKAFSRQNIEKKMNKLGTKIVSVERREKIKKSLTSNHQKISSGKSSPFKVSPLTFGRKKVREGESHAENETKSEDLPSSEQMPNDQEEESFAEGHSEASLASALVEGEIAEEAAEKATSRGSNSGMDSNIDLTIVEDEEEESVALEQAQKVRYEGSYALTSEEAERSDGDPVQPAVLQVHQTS
UniProt P42574: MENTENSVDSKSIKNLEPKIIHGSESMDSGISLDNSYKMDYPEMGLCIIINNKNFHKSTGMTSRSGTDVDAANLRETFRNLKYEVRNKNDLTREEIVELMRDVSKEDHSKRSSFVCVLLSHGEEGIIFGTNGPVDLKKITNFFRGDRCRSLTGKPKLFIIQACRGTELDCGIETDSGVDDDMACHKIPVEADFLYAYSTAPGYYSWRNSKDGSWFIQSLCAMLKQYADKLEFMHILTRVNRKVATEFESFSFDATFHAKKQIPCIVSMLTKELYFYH

Compound: NCC(=O)Nc1ccc(-n2nc(C(F)(F)F)cc2-c2ccc3c(ccc4ccccc43)c2)cc1
Assay: log2 fold change, soluble protein after heating vs DMSO (PISA); higher = thermal stabilisation; K562 lysate, 10 uM; active = over 0.2 and 3.5 SD of the protein, either way, in both replicates (recomputed)
Procedure, shortened: (§1)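 The values are log-two fold changes in thermal stability compared with solvent controls and come from duplicates. They were obtained by TMTpro 16plex LC-MS/MS, with channel sums equalised, on the supernatant after 21,000xg for 90 min. That supernatant came from crude K562 extract at 1 mg/mL protein treated with 10 μM compound for 30 min, heated for 3 min across 48°C-58°C, pooled and brought to 0.5% NP-40 at 4°C.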

Target	log2 fold change
CCNYL1 (UniProt Q8N7R7)	inactive: -0.013
CD47 (UniProt Q08722)	inactive: 0.007
CARHSP1 (UniProt Q9Y2V2)	inactive: 0.045
CCAR2 (UniProt Q8N163)	inactive: 0.01
CCDC88A (UniProt Q3V6T2)	inactive: -0.002
CD63 (UniProt P08962)	inactive: -0.1
CBL (UniProt P22681)	inactive: -0.008
CC2D1A (UniProt Q6P1N0)	inactive: 0.028
CAT (UniProt P04040)	inactive: 0.02
CD2BP2 (UniProt O95400)	inactive: 0.035
CASP6 (UniProt P55212)	inactive: -0.014
CCDC174 (UniProt Q6PII3)	inactive: 0.085
CCDC88C (UniProt Q9P219)	inactive: -0.027
CD81 (UniProt P60033)	inactive: 0.022
CD80 (UniProt P33681)	inactive: 0.018

Compound: O=C(CCCCCCC(=O)Nc1ccccc1)NO [vorinostat]
Assay: as above
Procedure, shortened: as §1

Target	log2 fold change
CASP2 (UniProt P42575)	inactive: 0.039
CCNC (UniProt P24863)	inactive: -0.001
CCDC51 (UniProt Q96ER9)	inactive: 0.153
CCNDBP1 (UniProt O95273)	inactive: -0.002
CCAR1 (UniProt Q8IX12)	inactive: -0.02
CARS isoform 3 (UniProt P49589)	active: -0.254
CCDC152 (UniProt Q4G0S7)	inactive: -0.168
CASP10 isoform 4 (UniProt Q92851)	inactive: -0.157
CCDC102A (UniProt Q96A19)	inactive: 0.398
CD55 isoform 7 (UniProt P08174)	inactive: 0.154
CCS (UniProt O14618)	inactive: -0.173
CBR4 (UniProt Q8N4T8)	inactive: 0.109
CCDC47 (UniProt Q96A33)	active: 0.207
CASTOR2 (UniProt A6NHX0)	inactive: 0.039
CBLL1 (UniProt Q75N03)	inactive: 0.106
CCNB2 (UniProt O95067)	inactive: -0.115
CBR1 (UniProt P16152)	active: -0.377
CCT5 (UniProt P48643)	inactive: 0.002
CAVIN2 (UniProt O95810)	inactive: 0.131

Target	log2 fold change
CBX1 (UniProt P83916)	inactive: 0.092
CASP3 (UniProt P42574)	inactive: 0.058
CD53 (UniProt P19397)	inactive: 0.011
CCNYL1 (UniProt Q8N7R7)	active: -0.674
CD47 (UniProt Q08722)	inactive: 0.108
CARHSP1 (UniProt Q9Y2V2)	inactive: 0.052
CCAR2 (UniProt Q8N163)	active: -0.399
CCDC88A (UniProt Q3V6T2)	inactive: -0.089
CD63 (UniProt P08962)	inactive: 0.123
CBL (UniProt P22681)	inactive: 0.003
CC2D1A (UniProt Q6P1N0)	inactive: -0.093
CAT (UniProt P04040)	inactive: 0.161
CD2BP2 (UniProt O95400)	inactive: -0.052
CASP6 (UniProt P55212)	inactive: -0.049
CCDC174 (UniProt Q6PII3)	inactive: 0.081
CCDC88C (UniProt Q9P219)	inactive: 0.025
CD81 (UniProt P60033)	inactive: -0.018
CD80 (UniProt P33681)	inactive: -0.028
